The series relates to alpha-thrombin (Homo sapiens). Briefly: binding assay. Conditions: single copy does not have high affinity for thrombin; thrombin species and method not stated; purified native protein; protein details: human alpha thrombin; single-stranded DNA; variant of Compound 10 (consensus thrombin aptamer).

The exact form of at least one protein or probe is not confirmed. A weaker result is weaker than the reference pair of the same experiment.

GGTTGGT [single copy of SEQ ID NO:1]: the binding result was “binds more weakly”.

The values are drawn from patent publication US5668265.
